In PubChem BioAssay AID1671190 (National Center for Advancing Translational Sciences (NCATS), 2021):
Several values for one entry are separate records, joined by “and”; a condition that tells them apart may be missing. Equal entries are not always repeated. Among all 580,000 compounds or so, about 6,100 (1.1%) were called active. Inconclusive means that the source gave no clear call. Such entries were picked first, then a sample of the others. Calls come from the whole dose curve; as a rule, active = well fitted inhibition curve with a large enough effect; inconclusive = small, poorly fitted or top-dose-only effect, or another doubt; inactive = no such curve, though single readings can be large or run the other way. Where the call is inconclusive, the potency comes from a doubtful curve fit.

Protein sequences, listed by entry. Tags and fused reporters are not part of them. Lines headed by an entry give the natural chain unless they say otherwise; changes in a name come on top.
UniProt P18054: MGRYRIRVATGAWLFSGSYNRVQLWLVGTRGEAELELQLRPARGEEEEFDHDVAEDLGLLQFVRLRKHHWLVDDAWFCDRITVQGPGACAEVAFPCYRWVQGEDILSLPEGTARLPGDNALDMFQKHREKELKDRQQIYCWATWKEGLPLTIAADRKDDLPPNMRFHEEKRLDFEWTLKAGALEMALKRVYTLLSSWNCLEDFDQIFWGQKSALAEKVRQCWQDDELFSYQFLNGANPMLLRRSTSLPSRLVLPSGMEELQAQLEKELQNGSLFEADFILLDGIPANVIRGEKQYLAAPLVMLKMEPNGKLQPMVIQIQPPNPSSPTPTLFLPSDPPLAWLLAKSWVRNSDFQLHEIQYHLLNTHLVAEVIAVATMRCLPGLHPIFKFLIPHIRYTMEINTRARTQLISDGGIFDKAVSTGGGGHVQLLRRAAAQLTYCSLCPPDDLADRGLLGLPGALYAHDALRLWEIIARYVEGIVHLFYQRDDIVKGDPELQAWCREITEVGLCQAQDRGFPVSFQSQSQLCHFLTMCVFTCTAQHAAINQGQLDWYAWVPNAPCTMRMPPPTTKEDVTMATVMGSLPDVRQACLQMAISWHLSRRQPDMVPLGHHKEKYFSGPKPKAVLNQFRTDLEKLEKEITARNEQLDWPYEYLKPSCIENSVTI

biological target: Polyunsaturated fatty acid lipoxygenase ALOX12 (Homo sapiens) (UniProt P18054); test: Primary qHTS assay for inhibitors of human arachidonate 12S-lipoxygenase (ALOX12): Round 2; conditions: purified 12hLO, xylenol orange hydroperoxide absorbance; activity change, negative = inhibition: at 108 µM (top of the series) unless noted
In short: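 Hydroperoxide product was detected by ferrous iron/xylenol orange as the 573 to 405 nm absorbance ratio. Arachidonic acid at 40 uM (final) was turned over for 30 min at room temperature by 150 nM human 12hLO, pH 7.0 Hepes buffer, after 15 min compound preincubation.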
% is set by controls: 0 for no effect and ±100 for the full control effect; potency is the fitted concentration of half-maximal effect.

| Compound | Potency | activity change, negative = inhibition |
| --- | --- | --- |
| Cc1nn(-c2ccccc2)c(C)c1[C@@H]1C=C[C@@H](NCc2cccc(C#N)c2)C1 | inconclusive: 12.6 µM [inhibitor, full curve] | – |
| O=C(CN1CCOCC1)Nc1nc2ccc(Br)cc2s1 | inconclusive: 50.1 µM [inhibitor, partial curve, poor fit] | – |
| CCOC(=O)C1=C(C)N=c2sc(=Cc3cc(Cl)c(OCC(=O)O)c(OC)c3)c(=O)n2C1c1ccccc1Cl (stereo unspecified) | inconclusive: 44.7 µM [inhibitor, partial curve, poor fit] | – |
| COc1ccc(NC(=O)C2CC(c3c(F)cccc3Cl)=NO2)cc1OC (stereo unspecified) | inactive | – |
| CCOc1ccccc1NC(=O)CN1C(=O)COc2ccc(C)cc21 | inconclusive: 89.1 µM [inhibitor, single point] | – |
| Cn1c(SCc2cccc(Br)c2)nc2c1c(=O)[nH]c(=O)n2C | inconclusive: 39.8 µM [inhibitor, partial curve] | – |
| Cc1cc(C)n2nc(N(Cc3ccccc3)S(=O)(=O)c3ccccc3)nc2n1 | inactive | – |
| CCc1noc(C)c1C(=O)Nc1ccc(C(C)(C)C)cc1 | inconclusive: 100 µM [inhibitor, single point] | – |
| CC(C)N(CCn1c(=S)[nH]c2ccccc2c1=O)C(C)C | inconclusive: 35.5 µM [inhibitor, partial curve, poor fit] | – |
| CNC(=S)N/N=C/c1ccc(N(C)C)cc1 | inconclusive: 79.4 µM [inhibitor, partial curve, poor fit] | – |
| CC(C)NC(=O)N1CCCC2(CCN(C(=O)c3ccncc3)CC2)C1 | inconclusive: 31.6 µM [inhibitor, single point] | – |
| O=S(c1cc(Cl)cc(Cl)c1O)c1cc(Cl)cc(Cl)c1O | active: 12.6 µM and active: 28.2 µM | – |
| COc1ccc(C2=NN3C(C2)c2ccccc2OC32CCN(C(C)=O)CC2)c(OC)c1 (stereo unspecified) | inconclusive: 6.31 µM [inhibitor, full curve, poor fit] | – |
| Cc1cc(O)c(N)c(C)c1Cl | active: 15.8 µM | – |
| CCOc1ccc([C@@H]2CC=C(C(=O)O)[C@H](c3ccc(F)cc3)N2S(=O)(=O)c2ccc(C)cc2)cc1 | inactive | – |
| COc1cccc(-c2cc(C(=O)Nn3cnnc3)c3ccccc3n2)c1 | inactive | – |
| Cc1cccn2cc(-c3c[nH]c4ccccc34)nc12 | inconclusive: 25.1 µM [inhibitor, full curve, poor fit] | – |
| CCCCCC(=O)OC(CN1CCCCCC1)CN1CCCC1=O (stereo unspecified) | inconclusive: 141 µM [inhibitor, partial curve, poor fit] | – |
| CCOC(=O)c1cc2n(n1)CC(C)(C(=O)NCCC(C)C)N(c1cccc(Cl)c1C)C2=O (stereo unspecified) | inactive | – |
| N#C/C(=C/c1ccc(-c2ccccc2C#N)o1)c1nc2ccccc2[nH]1 | – | inconclusive: -70% [inhibitor] |
| CCN(CC)CC(=O)Nc1ccc(Oc2ccc(NC(=O)CN(CC)CC)cc2)cc1 | inactive | – |
| NC(=O)COc1ccc(C(=O)N[C@@H]2CNCCC[C@H]2O)cc1 | inactive | – |

Whole records, quoted from the list:
O=C(CN1CCOCC1)Nc1nc2ccc(Br)cc2s1 as listed: Potency: inconclusive: 50.1 µM [inhibitor, partial curve, poor fit]
CCCCCC(=O)OC(CN1CCCCCC1)CN1CCCC1=O (stereo unspecified) as listed: Potency: inconclusive: 141 µM [inhibitor, partial curve, poor fit]
Cc1nn(-c2ccccc2)c(C)c1[C@@H]1C=C[C@@H](NCc2cccc(C#N)c2)C1 as listed: Potency: inconclusive: 12.6 µM [inhibitor, full curve]

Of the compounds above, 2 have bromine:

| Compound | Potency | activity change, negative = inhibition |
| --- | --- | --- |
| O=C(CN1CCOCC1)Nc1nc2ccc(Br)cc2s1 | inconclusive: 50.1 µM [inhibitor, partial curve, poor fit] | – |
| Cn1c(SCc2cccc(Br)c2)nc2c1c(=O)[nH]c(=O)n2C | inconclusive: 39.8 µM [inhibitor, partial curve] | – |

Next part

| Compound | Potency | activity change, negative = inhibition |
| --- | --- | --- |
| Cc1ccc(-c2cc(=O)c3cc(F)ccc3o2)cc1 | inconclusive: 1 µM [inhibitor, full curve, poor fit] | – |
| Cc1ccc(Cl)cc1N1CCN(C(=O)Cc2cn(C)c3ccccc23)CC1 | inconclusive: 31.6 µM [inhibitor, single point] | – |
| C/C(Cn1nc([N+](=O)[O-])cc1C)=N\NC(=O)c1ccc(O)cc1O | inconclusive: 3.55 µM [inhibitor, partial curve, poor fit] | – |
| Cn1c(=N)n(CC(=O)c2ccc(F)cc2)c2ccccc21 | inactive | – |
| O=C(Nc1cccs1)Nc1ccc(F)cc1F | inconclusive: 44.7 µM [inhibitor, partial curve] and inconclusive: 79.4 µM [inhibitor, partial curve, poor fit] | – |
| CC(NC(=O)C1(C#N)CCCC1)C12CC3CC(CC(C3)C1)C2 (stereo unspecified) | inconclusive: 28.2 µM [inhibitor, single point] | – |
| COc1cccc2sc(NC(=O)CS(=O)(=O)c3ccc(C)cc3)nc12 | inconclusive: 56.2 µM [inhibitor, partial curve, poor fit] | – |
| CCN1CC2([N+](=O)[O-])C=CC(=O)C([N+](=O)[O-])(C1)C2CC(=O)c1ccccc1 (stereo unspecified) | inconclusive: 2 µM [inhibitor, full curve] | – |
| O=C1C(=O)N(CCO)C(c2ccccc2[N+](=O)[O-])/C1=C(\O)c1ccccc1 (stereo unspecified) | inconclusive: 7.94 µM [inhibitor, full curve] | – |
| CCc1n[nH]c2c1/C(=N\O)CC(C)(C)C2 | inactive | – |
| C/C(=N\OC(=O)c1cccc(C(F)(F)F)c1)c1sc(-c2ccccc2)nc1C | inactive | – |
| COc1ccc(Cc2nnc(N/N=C/c3ccc(N(C)C)cc3)[nH]c2=O)cc1OC | inactive | – |
| COc1ccccc1OCCCCN1CCN(C(c2ccccc2)c2ccccc2)CC1 | inconclusive: 44.7 µM [inhibitor, partial curve, poor fit] | – |
| CCOc1ccccc1N(C)S(=O)(=O)c1ccc2c(c1)N(C(C)=O)CCO2 | inconclusive: 50.1 µM [inhibitor, partial curve, poor fit] | – |
| O=C(CN1C(=O)S/C(=C\c2cccs2)C1=O)Nc1ccc(O)c(C(=O)O)c1 | inconclusive: 70.8 µM [inhibitor, partial curve, poor fit] | – |
| COCc1[nH]nc2c1C(c1ccc(OC)cc1)C(C#N)=C(N)O2 (stereo unspecified) | inconclusive: 0.447 µM [inhibitor, full curve, poor fit] | – |
| COc1cc(C2CC(=O)N3CN(Cc4ccco4)CSC3=C2C#N)ccc1OCc1ccccc1 (stereo unspecified) | active: 25.1 µM | – |
| OCCNC(=S)Nc1ccc2nsnc2c1 | inconclusive: 112 µM [inhibitor, single point] | – |
| CCn1cc2nc(SCc3cccc(C(F)(F)F)c3)n(Cc3ccc(Cl)cc3)c(=O)c2n1 | inconclusive: 50.1 µM [inhibitor, partial curve, poor fit] | – |
| COc1ccccc1C1C2=C(CC(C)(C)CC2=O)N(CC(=O)O)C2=C1C(=O)CC(C)(C)C2 | inconclusive: 22.4 µM [inhibitor, partial curve, poor fit] | – |
| CCN(Cc1ccccc1)Cc1ccc(OCc2ccccc2)cc1 | inconclusive: 0.355 µM [inhibitor, full curve, poor fit] | – |
| O=C(CSc1nnc(CNC(=O)c2ccco2)o1)Nc1ccc(F)cc1 | inactive | – |

| Compound | Potency | activity change, negative = inhibition |
| --- | --- | --- |
| Cc1sc2nc(CCN)nc(N(C)CCCCN3CCOCC3)c2c1C | inconclusive: 10 µM [inhibitor, partial curve] | – |
| CCOC(=O)Cn1c(=N)n(CCOc2ccc(Br)cc2)c2ccccc21 | inconclusive: 44.7 µM [inhibitor, partial curve, poor fit] | – |
| CCNCC(=O)OCC | inconclusive: 4.47 µM [inhibitor, full curve] | – |
| CC(=O)NCCc1ccc(O)cc1 | inactive | – |
| Fc1ccc(N/N=C/c2c(F)cccc2F)c(F)c1 | inconclusive: 11.2 µM [inhibitor, partial curve, poor fit] | – |
| CN(C(=O)COC(=O)c1ccccc1Cc1ccccc1)c1c(N)n(Cc2ccccc2)c(=O)[nH]c1=O | inconclusive: 50.1 µM [inhibitor, partial curve, poor fit] | – |
| COc1ccccc1C(=O)NCCC(=O)NC1=NCCS1 | inconclusive: 31.6 µM [inhibitor, partial curve, poor fit] | – |
| Cn1c(=O)c([N+](=O)[O-])c(Cl)c2ccccc21 | inactive | – |
| CCCCN1C(=O)C(=O)NC[C@@H]1Cc1ccc(O)cc1 | inconclusive: 3.55 µM [inhibitor, full curve] | – |
| O=C(Cc1c[nH]c2ccccc12)NCC1(N2CCCCC2)CCCCC1 | inconclusive: 63.1 µM [inhibitor, partial curve, poor fit] | – |
| CC1=C(C)CC(C(=O)NC(c2ccccc2)c2ccccc2)C(C(=O)O)C1 (stereo unspecified) | inactive | – |
| Clc1ccc(/C=N/N2CCCCC2)cc1 | inconclusive: 112 µM [inhibitor, partial curve, poor fit] | – |
| O=C(c1ccc(NS(=O)(=O)c2ccc(F)cc2)cc1)N1CCN(c2ccccc2O)CC1 | inconclusive: 100 µM [inhibitor, partial curve, poor fit] | – |
| O=C(NCc1ccco1)C1Cc2ccccc2CN1S(=O)(=O)c1ccccc1F (stereo unspecified) | inconclusive: 2.51 µM [inhibitor, full curve, poor fit] | – |
| Cc1ccc(C(=O)N2CCn3c(nn(-c4cccc(Cl)c4)c3=O)C2)cc1 | – | inactive: 2.7% [at 6.33 µM] |
| OCCN(Cc1ccccc1)Cc1ccccc1O | inconclusive: 28.2 µM [inhibitor, partial curve, poor fit] | – |
| Cn1cccc1CN1CC(N2CCc3ccccc32)C1 | – | inactive: 3.87% [at 12.5 µM] |
| COc1ccc(/C=N/NC(=O)c2ccc(NC(=O)c3ccccc3Br)cc2)cc1 | inconclusive: 2 µM [inhibitor, full curve, poor fit] | – |
| COc1ccc(F)cc1C(=O)N1CC[C@@H]2[C@@H](CCC(=O)N2CCN)C1 | inconclusive: 15.8 µM [inhibitor, full curve] | – |
| C/C(=N/NC(=S)NC(C)C)c1ccncc1 | inconclusive: 50.1 µM [inhibitor, partial curve, poor fit] | – |
| Cc1ccc(COC(=O)c2ccccc2C(=O)c2ccc(Cl)cc2)cc1 | inconclusive: 4.47 µM [inhibitor, full curve, poor fit] | – |
| CCN(CC)C(=O)c1sc2c(c1C)c(=O)n(-c1ccccc1)c(=O)n2Cc1c(C)cc(C)cc1C | inconclusive: 56.2 µM [inhibitor, partial curve, poor fit] | – |
